Laboratory results as given in patent US12338476B2, “Methods for making high intensity sweeteners” (Firmenich Incorporated, priority 2018, dated 2025).

Tested on: S. cerevisiae
Assay: Hydrolysis by S. cerevisiae grown in the presence of mogroside, lysate analysed by HPLC (Examples 64, 65)
Assay type: cell-based
Settings: S. cerevisiae grown in the presence of Mogroside V

C[C@H](CC[C@@H](O[C@@H]1O[C@H](CO[C@@H]2O[C@H](CO)[C@@H](O)[C@H](O)[C@H]2O)[C@@H](O)[C@H](O)[C@H]1O[C@@H]1O[C@H](CO)[C@@H](O)[C@H](O)[C@H]1O)C(C)(C)O)[C@H]1CC[C@@]2(C)[C@@H]3CC=C4[C@@H](CC[C@H](O[C@@H]5O[C@H](CO[C@@H]6O[C@H](CO)[C@@H](O)[C@H](O)[C@H]6O)[C@@H](O)[C@H](O)[C@H]5O)C4(C)C)[C@]3(C)[C@H](O)C[C@]12C [Mogroside V]
mogroside content by HPLC (after 1 day of incubation): produced a mixture of Mogroside V, Mogrosides IV, and Mogroside IIIE
mogroside content by HPLC (after 2 days of incubation): substantially all of the mogrosides were converted to Mogroside IIIE
